These results are taken from the supplement of paper PMC6119338.

The structures appear in SMILES notation. Some of the results follow. Single values are uncertain, as repeats are few or missing.

In this experiment the test system is Plasmodium berghei sporozoites. Kind of experiment: residual sporozoite gliding motility relative to DMSO control; higher = less inhibition of motility. The conditions noted are these: 10 µM; incubation time 30 min.
Turning to `O=C(c1ccccc1F)N(Cc1ccc(Cl)cc1)c1ccccn1`, the “residual sporozoite gliding motility” value is greater than 50%.
The figure for `Cc1ccc(CN2CCC(C(=O)Nc3ccc(-c4cc5ccccc5[nH]4)cc3)CC2)o1` is greater than 50%; for `Cc1cc(NC(=O)c2ccc(-c3ccccc3)cc2)no1` it is greater than 50%.
The value for `Cn1c(=O)n(C)c2cc(CNCCNc3ccnc4cc(Cl)ccc34)ccc21` was greater than 50%; that for `CC(C)OCc1cc(CN2CCN(c3cccc(Cl)c3)CC2)c(O)c2ncccc12` was greater than 50%.
On to `CCOC(=O)C1=C(C)N=c2sc(=Cc3cc(Cl)ccc3O)c(=O)n2C1c1ccc(OC)cc1` (configuration not stated), for which the “residual sporozoite gliding motility” value was greater than 50%.
As to `CN1CCN(c2nc(Nc3ccc(O)cc3)nc3ccccc23)CC1`, the “residual sporozoite gliding motility” value is greater than 50%.
On to `O=c1cc(NC2CCN(CCCc3ccccc3)CC2)c2cc(Cl)ccc2o1`, for which the “residual sporozoite gliding motility” value was greater than 50%.
The figure for `COc1cccc(O)c1CN1CCC2(CCCN(Cc3ccc(F)cc3)C2)C1` (configuration not stated) is greater than 50%; for `O=C(CCl)NCCOc1ccc(Cl)cc1Cl` it is greater than 50%; for `COc1ccc(-c2nc(NC(=O)CS(=O)(=O)c3ccc(F)cc3)sc2C)cc1` it is greater than 50%.
The figure for `CCCC(c1nnnn1C1CCCCC1)N1CCN(C(=O)c2ccco2)CC1` (configuration not stated) is greater than 50%; for `O=C1c2ccccc2C2=Nc3ccccc3SC(c3cccc(F)c3)C12` (configuration not stated) it is greater than 50%; for `COc1ccc(C(=O)NC(c2ccccc2Cl)c2cc(Cl)c3cccnc3c2O)cc1` (configuration not stated) it is greater than 50%.
The value for `CCCCN(CCCC)S(=O)(=O)c1ccc(NC(=O)c2ccco2)cc1` was greater than 50%; that for `Cc1ccc(Nc2nc(N)c3ccccc3n2)cc1Cl` was greater than 50%; that for `Cc1ccc(C)c(Cn2c(N3CCC(C(=O)NCc4cccs4)CC3)nc3ccccc32)c1` was greater than 50%.
